Source: the supplement of paper PMC7646827
Structures can show the parent of a compound that is named as a salt. Many values rest on one well or one pass, so single values are uncertain.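 All cells are established human bladder cancer lines, one of them grown from a patient-derived xenograft. Viability was read by a luminescent ATP assay as percent inhibition versus vehicle over a seven-point dilution series; the paper calls scores above 59 very active, 30–59 active, 21–29 semi-active, 9–20 low active and below 9 inactive.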

Key:
Experiment in all cases: drug sensitivity score DSS3 (score 0-100); higher = more sensitive; extreme values may be limits of the assay
Conditions in all cases: culture: 3D, ultra-low attachment; treatment time: 5 days
UM-UC-1 = system: UM-UC-1
UM-UC-9 = system: UM-UC-9
UM-UC-15 = system: UM-UC-15
T-24 = system: T-24
J82 = system: J82
UM-UC-12 = system: UM-UC-12
UM-UC-17 = system: UM-UC-17
5637 = system: 5637
UM-UC-14 = system: UM-UC-14
TCCSUP = system: TCCSUP
SCaBER = system: SCaBER
UM-UC-3 = system: UM-UC-3
UM-UC-18 = system: UM-UC-18
UM-UC-5 = system: UM-UC-5
SW780 = system: SW780
UM-UC-6 = system: UM-UC-6
BC8149 = system: BC8149

| Structure (SMILES) | drug sensitivity score DSS3 (UM-UC-1) | drug sensitivity score DSS3 (UM-UC-9) | drug sensitivity score DSS3 (UM-UC-15) | drug sensitivity score DSS3 (T-24) | drug sensitivity score DSS3 (J82) | drug sensitivity score DSS3 (UM-UC-12) | drug sensitivity score DSS3 (UM-UC-17) | drug sensitivity score DSS3 5637 | drug sensitivity score DSS3 (UM-UC-14) | drug sensitivity score DSS3 (TCCSUP) | drug sensitivity score DSS3 (SCaBER) | drug sensitivity score DSS3 (UM-UC-3) | drug sensitivity score DSS3 (UM-UC-18) | drug sensitivity score DSS3 (UM-UC-5) | drug sensitivity score DSS3 (SW780) | drug sensitivity score DSS3 (UM-UC-6) | drug sensitivity score DSS3 (BC8149) |
| --- | --- | --- | --- | --- | --- | --- | --- | --- | --- | --- | --- | --- | --- | --- | --- | --- | --- |
| COc1ccc(CNC(=O)Nc2ncc([N+](=O)[O-])s2)cc1 (max dose 10000 nM) | 0 | 0 | 16.4 | 0 | 0 | 0.272 | 0.365 | 0.144 | 0.383 | 0.424 | 0 | 0 | 0.543 | 0.00635 | 0 | 0.0504 | 0.981 |
| CN(C)CCOc1ccc(-c2nc(-c3ccncc3)c(-c3ccc4c(c3)CC/C4=N\O)[nH]2)cc1 (max dose 10000 nM) | 1.94 | 0 | 0 | 0 | 0 | 0 | 0 | 1.05 | 0 | 5.41 | 0.35 | 0.269 | 0 | 0.91 | 0 | 0.078 | 0 |
| O=C(O)CC[C@H]1CC[C@@](c2cc(F)ccc2F)(S(=O)(=O)c2ccc(Cl)cc2)CC1 [MK-0752] (max dose 10000 nM) | 0 | 0 | 0 | 0 | 0 | 0 | 0 | 0 | 3.06 | 0 | 13.9 | 9.32 | 0 | 0.235 | 0 | 0 | 0 |
| CC(C)(C)OC(=O)Nc1ccc(-c2cc(C(=O)NCCCCCCC(=O)NO)no2)cc1 (max dose 10000 nM) | 2.44 | 1.39 | 27.4 | 13 | 1.27 | 6.5 | 0 | 5.12 | 3.35 | 4.84 | 2.82 | 7.7 | 7.84 | 0 | 0.833 | 1.67 | 11.3 |
| COc1cc2c(cc1OC)CN(C(=O)/C=C/c1c(-c3ccccc3)n(C)c3ncccc13)CC2 [SIS3 HCl] (max dose 10000 nM) | 0 | 0 | 0 | 0 | 0 | 0 | 0 | 0 | 0 | 0 | 0 | 0 | 0 | 0 | 0 | 0 | 0 |
| Nc1nc(Cl)nc2c1ncn2[C@@H]1O[C@H](CO)[C@@H](O)[C@@H]1F [Clofarabine] (max dose 10000 nM) | 15.8 | 12.6 | 0 | 1.4 | 19.2 | 0 | 26.3 | 32.1 | 9.94 | 42 | 9.75 | 10.5 | 45.9 | 3.04 | 2.54 | 12.6 | 29.9 |
| COc1cc([C@@H]2c3cc4c(cc3[C@@H](O[C@@H]3O[C@@H]5CO[C@@H](C)O[C@H]5[C@H](O)[C@H]3O)[C@H]3COC(=O)[C@H]23)OCO4)cc(OC)c1O [Etoposide] (max dose 10000 nM) | 2.94 | 0 | 0 | 0 | 2.67 | 0 | 1.53 | 15 | 15.9 | 11.7 | 10.8 | 2 | 11.4 | 1.48 | 0 | 5.19 | 12.8 |
| CC(C)(C)c1cc(/C=C(\C#N)C(N)=S)cc(C(C)(C)C)c1O [Tyrphostin AG 879] (max dose 10000 nM) | 0 | 0 | 0 | 0 | 0 | 0 | 0 | 0 | 0 | 0 | 0 | 0 | 0 | 0 | 0 | 0 | 0 |
| CC(C)C[C@H](NC(=O)CNC(=O)c1cc(Cl)ccc1Cl)B(O)O [MLN2238] (max dose 10000 nM) | 38.6 | 32 | 30.4 | 5.67 | 32.9 | 50.6 | 40.3 | 47.9 | 34 | 34.8 | 42.5 | 15 | 30.2 | 27.2 | 45.9 | 26.6 | 55 |
| Cc1cc(C)nc(SCC(=O)Nc2ncc(Cc3cccc4ccccc34)s2)n1 [SirReal2] (max dose 10000 nM) | 0 | 0 | 0 | 0.0105 | 0 | 0 | 0 | 0 | 0 | 0 | 0 | 0 | 0 | 0 | 0 | 0 | 0 |
| Clc1ccccc1CN1CCc2sccc2C1 [Ticlopidine HCl] (max dose 10000 nM) | 0 | 0 | 0 | 0 | 0 | 0 | 0 | 0 | 0 | 0 | 0 | 0 | 0 | 0.0692 | 0 | 0 | 0 |
| O=NN(CCCl)C(=O)NC1CCCCC1 [Lomustine] (max dose 10000 nM) | 4.58 | 0.707 | 0 | 0 | 0 | 0 | 3.93 | 12.7 | 0 | 10.3 | 0 | 0.00699 | 1.04 | 0 | 0.00237 | 0.0239 | 2.18 |
| CCCCOc1nc(N)c2c(n1)N(Cc1cccc(CN3CCCC3)c1)CC(=O)N2 [GS-9620] (max dose 10000 nM) | 0 | 0 | 0 | 0 | 0 | 0 | 0 | 0 | 0.000305 | 0 | 0 | 0 | 0 | 0 | 0 | 0 | 0 |
